Assay: Co-transcriptional capping of hEPO mRNA by in vitro transcription (capping fraction)
Conditions: fraction of hEPO mRNA capped, used for normalization; Table 7

SMILES | capping %/100
CO[C@@H]1[C@H](O)[C@@H](COP(=O)(O)OP(=O)(O)OP(=O)(O)OC[C@H]2O[C@@H]([n+]3cn(C)c4c(=O)[nH]c(N)nc43)[C@H](O)[C@@H]2O)O[C@H]1n1cnc2c(=O)[nH]c(N)nc21 [Cap1, m7GpppG(2′-Om)] | 1
CO[C@H]1[C@@H](O)[C@H](n2c[n+](C)c3c(=O)[nH]c(N)nc32)O[C@@H]1COP(=O)(O)OP(=O)(O)OP(=O)(O)OC[C@H]1O[C@@H](n2cnc3c(=O)[nH]c(N)nc32)[C@H](O)[C@@H]1O [ARCA] | 0.86

From patent publication US10428106B2, “Phosphate replacement mRNA cap analogs” (ModernaTX, Inc., priority 2015, dated 2019)
